Data as given in PubChem BioAssay AID504744 (Drosophila RNAi Screening Center, 2011).

Test: 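Uncover factors, including feedback loops, that control dAkt activation in fly cells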 (primary screen)
Cells: Drosophila Kc167 cells
Reagents: long dsRNA against Drosophila genes, 250 ng dsRNA per well of a 384-well plate
Duration: 3 days of knock-down, then overnight serum-free starvation before stimulation
Treatment: bovine insulin at 387 nM for 10 minutes after 12 h without serum
Detection: 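Per-well phospho-dAkt level from an in-cell fluorescent antibody stain, divided by a DNA-dye signal; log2 residuals turned into z-scores that take cell number into account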
Active means: 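Hit in the insulin screen when the two-replicate mean z-score is more extreme than plus or minus 2.5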
The deposit covers about 23,000 reagents; below is a random part of those with a known target gene and a result. Of all reagents, 98 (0.43%) got an active call. 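Only hit calls are given; the phospho-dAkt signals, z-scores and hit direction were not deposited.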 Reagents against one gene are numbered here. Names joined by + are all predicted targets of the reagent.

gene	reagent no.	Outcome
CG13658	1	inactive
h-cup + Rbp	1	inactive
Dp1	1	inactive
mIF3	1	inactive
CG15196	1	inactive
COX1 (retired record)	1	inactive
caly	1	inactive
Or69a	1	inactive
Ir94c	1	inactive
CG32160 (retired record)	1	inactive
CG11248	1	inactive
CG6980	1	inactive
U4-U6-60K	1	inactive
PIG-K	1	inactive
CG42741	1	inactive
CG42741	2	inactive
CG7789	1	inactive
Ugt36A1 + CG15418	1	inactive
CG2972	1	inactive
CG31606	1	inactive
CG10194	1	inactive
CG40439	1	inactive
CG3323	1	inactive
CG14562	1	inactive
Msp300	1	inactive
Msp300	2	inactive
Msp300	3	inactive
Msp300	4	inactive
Msp300	5	inactive
Msp300	6	inactive
Msp300	7	inactive
CG16986	1	inactive
CG15880	1	inactive
CG15365	1	inactive
ND-19	1	inactive
CG7387	1	inactive
CG32187	1	inactive
mil	1	inactive
Pex6 + Hao	1	inactive
Pex6 + Hao	2	inactive
CG34434	1	inactive
CG17032	1	inactive
CG12917	1	inactive
Cpr35B	1	inactive
Cpr35B	2	inactive
CG3651	1	inactive
CG11585	1	inactive
Isha	1	inactive
CG16896	1	inactive
CG11694	1	inactive
CG1486	1	inactive
CG30156	1	inactive
CG6432	1	inactive
Pex23	1	inactive
Pex23	2	inactive
NimC2	1	inactive
CG3609	1	inactive
CG6610	1	inactive
Axn	1	inactive
CG31689	1	inactive
CG9973 (retired record)	1	inactive
alpha-Catr	1	inactive
CG10444	1	inactive
lncRNA:Hsromega	1	inactive
Br140	1	inactive
Best1	1	inactive
Asciz	1	inactive
CCDC151	1	inactive
ND-B16.6	1	inactive
ND-B16.6	2	inactive
CG1418	1	inactive
Fitm	1	inactive
Arms	1	inactive
Arms	2	inactive
Arms	3	inactive
Arms	4	inactive
Cyp4g1	1	inactive
CG42843 (retired record)	1	inactive
CG42843 (retired record)	2	inactive
CG42843 (retired record)	3	inactive
sgll	1	inactive
nSMase	1	inactive
Etf-QO	1	inactive
Cp18	1	inactive
eIF3d1	1	inactive
Ack-like	1	inactive
Gmer	1	inactive
morgue	1	inactive
sif	1	inactive
sif	2	inactive
sif	3	inactive
sif	4	inactive
Ccdc58 + CG34116	1	inactive
alrm	1	inactive
GluRIIC	1	inactive
swa	1	inactive
CG32461	1	inactive
BtbVII	1	inactive
BtbVII	2	inactive
CG33269	1	inactive
CycC	1	inactive
CG15035	1	inactive
Mybbp1A	1	inactive
CG32547	1	inactive
CG32547	2	inactive
CG32547	3	inactive
CG32547	4	inactive
Caf1-105	1	inactive
Larp4B	1	inactive
Las	1	inactive
Odc1	1	inactive
pasha	1	inactive
CG17930	1	inactive
sordd2 + sordd1	1	inactive
NtR	1	inactive
Lsp1beta	1	inactive
CG31099	1	inactive
Rbp9	1	inactive
Rbp9	2	inactive
CG17198 + CG17197	1	inactive
CG17198 + CG17197	2	inactive
CG17237	1	inactive
CG7656	1	inactive
CG17242	1	inactive
chrb	1	inactive
Acat1	1	inactive
ND-B18	1	inactive
Sema1a	1	inactive
Hdc	1	inactive
CG43736 + CG33692 (retired record)	1	inactive
CG43736 + CG33692 (retired record)	2	inactive
CG5062	1	active

Next part (2 carried over from the part before).
gene	reagent no.	Outcome
CG43736 + CG33692 (retired record)	2	inactive
CG5062	1	active
CG42490 (retired record)	1	inactive
Cpr11A	1	inactive
CG7094	1	inactive
Arc2	1	inactive
CG34436	1	inactive
mol	1	inactive
mol	2	inactive
mol	3	inactive
Yp3	1	inactive
Coq7 + shf	1	inactive
unc-45	1	inactive
Ugt35E1	1	inactive
RfC3	1	inactive
CG5611	1	inactive
CG13096	1	inactive
mod	1	inactive
CG10013	1	inactive
Spn28F	1	inactive
CG15172	1	inactive
CG40005 (retired record) + cta	1	inactive
alpha-Man-Ib	1	inactive
CG13033	1	inactive
NimC3	1	inactive
NimC3	2	inactive
Gyc89Da	1	inactive
CG31688	1	inactive
CG1288	1	inactive
Cpr65Aw	1	inactive
CG3009	1	inactive
CG5543	1	inactive
Gprk2	1	inactive
fs(1)Ya	1	inactive
CG5382	1	inactive
Mhc	1	inactive
CG5910	1	inactive
CG17193	1	inactive
Scm	1	inactive
CG4730	1	inactive
CG10979	1	inactive
CG15027	1	inactive
Sln	1	inactive
nxf4	1	inactive
CG7798	1	inactive
rdhB	1	inactive
CG11300	1	inactive
Aldh-III	1	inactive
Nipped-B	1	inactive
CG30274	1	inactive
Edc3	1	inactive
Alg9	1	inactive
GAPsec	1	inactive
CG8673	1	inactive
CG32099	1	inactive
CG4286	1	inactive
Lip1	1	inactive
HINT1	1	inactive
lap	1	inactive
CG32669	1	inactive
PRL-1	1	inactive
CG30008	1	inactive
Der-1	1	inactive
Ppa	1	inactive
CG15185	1	inactive
Rdl	1	inactive
E5	1	inactive
E5	2	inactive
blanks	1	inactive
ND-75	1	inactive
